Experimental data: PubChem BioAssay AID2685 (National Center for Advancing Translational Sciences (NCATS), 2010)
Out of some 320,000 compounds screened, about 2,100 (0.66%) were called active. The call rests on the fitted dose curve; in most records, active means well fitted inhibition curve with a large enough effect in the signal ratio, with a control signal flat (not every such curve was filed as active); inconclusive means small, poorly fitted or top-dose-only effect, or effect the other way, or a change in a side signal; inactive means flat fitted curve, though single readings scatter; the % refers to the signal ratio. The inconclusive results got no clear call from the source. Where the call is inconclusive, the potency comes from a doubtful curve fit. Where a SMILES comes first, the peptide text is derived from it. [ ]: non-standard residue; d: D form. ξ: configuration not given here. ξV = CC(C)C(N)C(=O)O

Experiment: qHTS Assay for Lipid Storage Modulators in Drosophila S3 Cells
Conditions: BODIPY lipid droplet fluorescence, 18-24 h, cells fed with added oleic acid; lipid storage change, negative = inhibition: at 46.1 µM (top of the series) unless noted
Method in brief: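 Drosophila S3 cells got compounds at several concentrations plus oleic acid (400 uM solution). Laser-scanning cytometry with 488 nm excitation read lipid droplets at 500-530 nm and cells at 575-640 nm. Percent activity was relative to 20 uM Triacsin C.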
On the % scale 0 is the no-effect control and ±100 the full control effect; potency means the concentration at half of the fitted maximal effect.

SMILES	lipid storage change, negative = inhibition	Potency
O=C(CN1CCN(S(=O)(=O)c2ccc(Br)cc2)CC1)Nc1ccc2c(c1)OCO2	inconclusive: -34.8% [at 0.0737 µM]	
CC(=O)NC(C(=O)NCC(N)=O)C(C)C (stereo not drawn) (Ac-[ξV]-Gly-NH2)	inconclusive: -0.0618%	
CCNC(=O)c1ccc(C2SCC(=O)N2Cc2ccco2)cc1 (stereo not drawn)	inconclusive: -20.5%	
COc1ccc(NS(=O)(=O)c2ccc(S(=O)(=O)N3CCCC3)cc2)cc1		inconclusive: 4.11 µM [activator, single point]
CC(C)CCN(C(=O)Cc1ccccc1F)c1c(N)n(Cc2ccccc2)c(=O)[nH]c1=O	inconclusive: -2.95%	
CN(C)c1nc(Oc2ccc(/C=N/O)cc2)nc(N(C)C)n1	inconclusive: 16.5%	
CCCn1c(N)c(N(CCOC)C(=O)c2ccc(F)cc2F)c(=O)[nH]c1=O		inconclusive: 6.51 µM [activator, single point]
CCc1ccc(N(CC)C(=O)c2ccc3c(Cl)c4c(nc3c2)CCC4)cc1	inconclusive: -0.266%	
CN1CCN(CC(O)COc2ccc(C34CC5CC(CC(C5)C3)C4)cc2)CC1 (stereo not drawn)	inconclusive: -56.5%	
O=C(COc1ccc(F)cc1)N(Cc1ccc(Cl)cc1)C1CCS(=O)(=O)C1 (stereo not drawn)	inconclusive: 10.8%	
NS(=O)(=O)c1ccc(NC(=O)NC2CC(=O)N(c3ccc4c(c3)OCCO4)C2)cc1 (stereo not drawn)	inconclusive	
COc1ccccc1NC(=O)CN(c1ccccc1OC)S(=O)(=O)c1ccccc1		inconclusive: 29.1 µM [falling, single point]
CCc1ccc(OCC(=O)NC(C)(C)C)cc1	inconclusive: -11.4%	
COc1ccccc1C(C)Nc1ccc(S(=O)(=O)N2CCN(C)CC2)cc1[N+](=O)[O-] (stereo not drawn)	inconclusive: -0.796%	
Cn1nc(CC(=O)NCc2cccc3ccccc23)c2ccccc2c1=O		inconclusive: 2.91 µM [rising, single point]
CCOc1ccc(NC(=O)CCCc2cc(-c3ccc(OCC)cc3)on2)cc1	inconclusive: 16.7%	
COc1ccc(OC)c2c1sc(=NC(=O)c1cccc(N3C(=O)CCC3=O)c1)n2C		inconclusive: 29.1 µM [cytotoxic, single point]
CC1=CC(C)(C)n2c(O)c(N=N)c3c(C)ccc1c32	inconclusive: -6.45%	
Cc1ccc2cc(C=O)c(N(C)C)nc2c1	inconclusive: 3.91%	

SMILES	lipid storage change, negative = inhibition	Potency
CSc1ccc(/C=N/n2c(C)nnc2C)cc1	inconclusive: 48.1%	
Cc1ccsc1C(=O)OCC(=O)Nc1cccc(S(=O)(=O)N2CCOCC2)c1	inconclusive: -20.5%	
CN(CCc1ccccn1)C(=O)CN(C)S(=O)(=O)c1ccc2c(c1)c(=O)n(C)c(=O)n2C	inconclusive: 37.8%	
CN(C(=O)C(C)(C)C)C1c2c(ccc3ccccc23)OCC1CO (stereo not drawn)	inconclusive: -14.8%	
Nc1ccc2oc(-c3cc(Br)ccc3Cl)nc2c1	inconclusive: 4.66%	
O=C(Nc1ccc(F)cc1F)c1ccc2c(=O)n3c(nc2c1)CCC3	inconclusive: -1.43%	
O=C(CN1CCCCC1)NC(=O)NCc1ccccc1	inconclusive: 2.44%	
COC(=O)NC(=S)Nc1ccc(Oc2ccc(Cl)cc2)c(Cl)c1		inconclusive: 1.84 µM [activator, partial curve]
Oc1c(CN2CCOCC2)cc(COCc2ccccc2)c2cccnc12		inconclusive: 18.4 µM [falling, single point]
COc1ccc(NS(=O)(=O)c2cc(NC(=O)c3ccco3)ccc2N2CCCCC2)cc1	inconclusive: -10.1%	
COc1ccccc1Oc1ccc(Oc2ccccc2OC)cc1		inconclusive: 0.517 µM [falling, single point]
Cc1nnsc1C(=O)NNS(=O)(=O)c1cc(C(F)(F)F)cc(C(F)(F)F)c1		inconclusive: 29.1 µM [cytotoxic, single point]
COc1ccc(-c2nc(SCC(=O)N3CCOCC3)n[nH]2)cc1	inconclusive: 21.9%	
O=C(c1ccc2snnc2c1)N1CCOCC1	inconclusive: -2.72%	
CC1=CC(=O)CC2C1(C)CCC(C)C2(C)CCC(C)CC(=O)O (stereo not drawn)	inconclusive: -5.97%	
COc1cccc(CNC(=O)Cc2c(C(=O)O)[nH]c3ccccc23)c1		inconclusive: 6.51 µM [cytotoxic, single point]
COc1cccc(C2=NOC(C(=O)Nc3c(C)n(C)n(-c4ccccc4)c3=O)C2)c1 (stereo not drawn)		inconclusive: 0.092 µM [falling, full curve, poor fit]
O=C1CC(c2ccccc2)n2nc(N3C(=O)c4ccccc4C3=O)nc2N1 (stereo not drawn)	inconclusive: 24.4%	
CS(=O)(=O)Nc1ccc(C(=O)CC(=O)Nc2ccc([N+](=O)[O-])cc2)cc1		inconclusive: 10.3 µM [activator, partial curve, poor fit]

Sorted by molecular weight (rising): three of the compounds above.
SMILES	lipid storage change, negative = inhibition	Potency
CSc1ccc(/C=N/n2c(C)nnc2C)cc1	inconclusive: 48.1%	
O=C1CC(c2ccccc2)n2nc(N3C(=O)c4ccccc4C3=O)nc2N1 (stereo not drawn)	inconclusive: 24.4%	
Cc1nnsc1C(=O)NNS(=O)(=O)c1cc(C(F)(F)F)cc(C(F)(F)F)c1		inconclusive: 29.1 µM [cytotoxic, single point]
